# In publication PMC11471967:
# The exact form of at least one protein or probe is not confirmed. At least one result comes from cells or an extract, where the contact may be indirect.
# System: RelA (p65), human CTL nuclear extract + NF-kB1 p50, human CTL nuclear extract + PPARδ, human CTL nuclear extract
# Assay: EMSA with Western blot of the gel
# Details: 5 ug, EMSA: LightShift kit, 5 ug nuclear extract, 4% nondenaturing gel, SYBR Green, TransAM kit per vendor, pH and temperature not stated, protein in an extract, label: none (SYBR Green stain)
sequence,measurement,value
AGTTGAGGGGACTTTCCCAGGC (double strand) [NF-kB consensus oligonucleotide (Rockland K-025)],binding result,binds
